From article PMC11589570, “Critical assessment of LC3/GABARAP ligands used for degrader development and ligandability of LC3/GABARAP binding pockets” (Nature Communications, 2024)
Read-outs that look alike come from different tables or passages of the source. This continues a long series; more values of the same kind are listed elsewhere.

Protein sequences, listed by entry. Tags and fused reporters are not part of them.
UniProt P60520, whole entry: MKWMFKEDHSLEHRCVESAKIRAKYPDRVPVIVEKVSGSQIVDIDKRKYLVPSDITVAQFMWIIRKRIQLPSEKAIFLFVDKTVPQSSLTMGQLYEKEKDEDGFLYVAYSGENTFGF

What was measured:
GABARAPL2 = GABARAPL2 (Homo sapiens, UniProt P60520); settings: GABARAPL2:ligand molar ratio 1:2
LC3B = LC3B (Homo sapiens, UniProt Q9GZQ8); settings: LC3B:ligand molar ratio 1:2

Row | SMILES | CSP (GABARAPL2; residue F5, estimated) | CSP (GABARAPL2; residue G92) | CSP (GABARAPL2; residue K82, estimated) | CSP (GABARAPL2; residue L89) | CSP (GABARAPL2; residue L94) | CSP (GABARAPL2; residue M4, estimated) | CSP (GABARAPL2; residue M91) | CSP (GABARAPL2; residue P85, estimated) | CSP (GABARAPL2; residue Q86) | CSP (GABARAPL2; residue Q93) | CSP (GABARAPL2; residue S87) | CSP (GABARAPL2; residue S88) | CSP (GABARAPL2; residue T83) | CSP (GABARAPL2; residue T90) | CSP (GABARAPL2; residue V84) | CSP (GABARAPL2; residue Y95) | CSP (LC3B; LC3B residue E04, estimated) | CSP (LC3B; LC3B residue F79) | CSP (LC3B; LC3B residue F80) | CSP (LC3B; LC3B residue G85) | further results
1 | Cc1ccc(C(=O)N(CCCN)[C@@H](c2nc3cc(Cl)ccc3c(=O)n2Cc2ccccc2)C(C)C)cc1 [compound 3, (R)-N-(3-aminopropyl)-N-(1-(3-benzyl-7-chloro-4-oxo-3,4-dihydroquinazolin-2-yl)−2-methylpropyl)−4-methylbenzamide] | 0.006 ppm | 0.00146 ppm | 0.002 ppm | 0.00141 ppm | 0.003 ppm | 0.006 ppm | 0.001 ppm | 0.002 ppm | 0.000283 ppm | 0.00214 ppm | 0.0011 ppm | 0.000283 ppm | 0.00142 ppm | 0.000566 ppm | 0.00142 ppm | 0.000721 ppm | 0.002 ppm | 0.000141 ppm | 0.00142 ppm | 0.00447 ppm | CSP (LC3B; LC3B residue H86): 0.007 ppm; CSP (LC3B; LC3B residue I95): 0.00264 ppm; CSP (LC3B; LC3B residue K05): 0.0024 ppm; CSP (LC3B; LC3B residue L81): 0.00474 ppm; CSP (LC3B; LC3B residue L82): 0.005 ppm; CSP (LC3B; LC3B residue M88): 0.000825 ppm; CSP (LC3B; LC3B residue N84): 0.00333 ppm; CSP (LC3B; LC3B residue P94, estimated): 0.005 ppm; CSP (LC3B; LC3B residue S87): 0.00649 ppm; CSP (LC3B; LC3B residue S90): 0.005 ppm; CSP (LC3B; LC3B residue S92): 0.010 ppm; CSP (LC3B; LC3B residue T93): 0.006 ppm; CSP (LC3B; LC3B residue V83): 0.00329 ppm; CSP (LC3B; LC3B residue V89): 0.005 ppm; CSP (LC3B; LC3B residue V91, estimated): 0.005 ppm
2 | O=C1Nc2ccc(I)cc2C1=Cc1cc(Br)c(O)c(Br)c1 [compound 4] | 0.010 ppm | 0.015 ppm | 0.020 ppm | 0.010 ppm | 0.023 ppm | 0.010 ppm | 0.019 ppm | 0.010 ppm | 0.00472 ppm | 0.019 ppm | 0.000707 ppm | 0.008 ppm | 0.023 ppm | 0.010 ppm | 0.00428 ppm | 0.004 ppm | 0.002 ppm | 0.00224 ppm | 0.003 ppm | 0.030 ppm | CSP (LC3B; LC3B residue H86): 0.023 ppm; CSP (LC3B; LC3B residue I95): 0.029 ppm; CSP (LC3B; LC3B residue K05): 0.00122 ppm; CSP (LC3B; LC3B residue L81): 0.024 ppm; CSP (LC3B; LC3B residue L82): 0.028 ppm; CSP (LC3B; LC3B residue M88): 0.00472 ppm; CSP (LC3B; LC3B residue N84): 0.016 ppm; CSP (LC3B; LC3B residue P94, estimated): 0.032 ppm; CSP (LC3B; LC3B residue S87): 0.067 ppm; CSP (LC3B; LC3B residue S90): 0.034 ppm; CSP (LC3B; LC3B residue S92): 0.069 ppm; CSP (LC3B; LC3B residue T93): 0.037 ppm; CSP (LC3B; LC3B residue V83): 0.060 ppm; CSP (LC3B; LC3B residue V89): 0.029 ppm; CSP (LC3B; LC3B residue V91, estimated): 0.045 ppm
